Experimental data from article PMC7031616.

Biological target: 3× hemagglutinin (3×HA)-tagged MYR1 (Toxoplasma gondii (type I RH strain))
Assay: affinity purification with mass spectrometry

Binder	binding
GRA7 (TGGT1_203310) (protein, UniProt O00933 27-236) ATASDDELMSRIRNSDFFDGQAPVDSLRPTNAGVDSKGTDDHLTTSMDKASVESQLPRREPLETEPDEQEEVHFRKRGVRSDAEVTDDNIYEEHTDRKVVPRKSEGKRSFKDLLKKLALPAVGMGASYFAADRLVPELTEEQQRGDEPLTTGQNVGTVLGFAALAAAAAFLGMGLTRTYRHFSPRKNRSRQPALEQEVPESGEDGEDARQ	binds
ROP17 (protein, UniProt Q2PAY3 22-608) LLLRSPTSNDVFGELVASAERAQPLATRLTKRISRLNFNDREDDFWEDHGDASWNNSYTLVNGRTTLGSENRRRPASHSLIERPYYRDGRLSPVLGVQERRGRSVHSYHEEPVSFFDQRAFDEYTFRRRSQLHRQRARAGLRSRIKQNVRRLWTSARGAVRGWGRRVRRKIGDLFVGHLMPQLRRLRFWDQGLPPVVPPLIGNEPGQASVALVAERMEARLREKTLTEKNPTEAQQAVGTYLINSAENTWFISIPGGRYILLKKRGFLGGGGFGLVYHVEHPTTGQPFALKIFVQRVMNNEVGDKISDLIEDEFGVMKYFPPEWTPARMYSELRFMVPLLKLRVLGKPEFQDARNHLRIFSVCALFPKAQGDLEEAAALLADMDRTNAYNMRMSSTIQMVKLLARFHAFGLVHGDVKLQNFLVDKSGLLLLSDFTQILRTNERRYPPVVTVLYMSPEIATCLITRLRNAIPYTAEIDSWMLGISLYRLWCGDFPFGITLDATALQVAGIVIRSSASSLDFASCHDIPEQFREMIVGFLRKTPGVRLSPQQALEQFSLLNWKGPSPASDTASESEPVSTEEAALLQKE	no binding

No constants are given. Whether binding was seen depends on the method and setting. In cells and extracts the contact can be indirect. A yes stands for co-enrichment or nearness to the bait. Other partners may have been found. No binding means not detected with the bait.
